The supplement of paper PMC12823440, “Inhibitors supercharge kinase turnover through native proteolytic circuits” (Nature, 2025)
Structures can show the parent of a compound that is named as a salt. Some of the results follow. Hit calls seldom repeat between salt and free forms of one compound.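 Kinases were expressed as nanoluciferase fusions in K562 cells and luminescence was read every 4 h between 2 and 18 h as percent of control, DMSO set to 100% and a positive control to 0%. A time point counts as decreased when the signal drops significantly (2 sigma). The hit call is the authors' own, does not follow from the count of time points alone, and its rule is not shown.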

Chains of the proteins cited; added tags and fusions are not shown.
UniProt P36888, whole entry: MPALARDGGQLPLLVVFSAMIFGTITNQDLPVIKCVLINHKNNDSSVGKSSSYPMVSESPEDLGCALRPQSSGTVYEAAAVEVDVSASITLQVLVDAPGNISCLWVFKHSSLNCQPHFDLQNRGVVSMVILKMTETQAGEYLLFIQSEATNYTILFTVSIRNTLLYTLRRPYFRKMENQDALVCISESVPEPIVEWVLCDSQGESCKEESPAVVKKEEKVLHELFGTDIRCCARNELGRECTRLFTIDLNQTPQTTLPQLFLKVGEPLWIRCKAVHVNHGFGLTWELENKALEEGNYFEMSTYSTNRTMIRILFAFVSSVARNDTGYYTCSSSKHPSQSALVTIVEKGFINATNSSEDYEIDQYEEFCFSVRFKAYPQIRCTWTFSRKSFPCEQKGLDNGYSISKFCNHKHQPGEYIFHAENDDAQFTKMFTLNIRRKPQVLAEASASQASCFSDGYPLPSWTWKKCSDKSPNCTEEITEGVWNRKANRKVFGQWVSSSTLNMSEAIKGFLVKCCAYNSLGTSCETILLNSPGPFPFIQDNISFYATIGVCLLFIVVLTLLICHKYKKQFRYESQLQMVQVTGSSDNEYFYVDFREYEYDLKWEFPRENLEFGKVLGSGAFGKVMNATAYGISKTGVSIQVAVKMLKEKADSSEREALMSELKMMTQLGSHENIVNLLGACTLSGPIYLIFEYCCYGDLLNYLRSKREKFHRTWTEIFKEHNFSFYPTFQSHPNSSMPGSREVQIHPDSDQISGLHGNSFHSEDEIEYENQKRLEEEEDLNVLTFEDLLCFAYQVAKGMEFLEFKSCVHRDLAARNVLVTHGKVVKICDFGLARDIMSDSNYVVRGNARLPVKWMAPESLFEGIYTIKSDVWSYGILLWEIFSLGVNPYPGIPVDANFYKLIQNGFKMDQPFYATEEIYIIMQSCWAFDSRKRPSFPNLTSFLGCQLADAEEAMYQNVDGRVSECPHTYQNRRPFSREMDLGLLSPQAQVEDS

target: FGR (UniProt P09769); assay: kinase-Nluc reporter destabilization hit call (1 = scored as downregulated) (binary); higher = compound decreases kinase abundance; details: K562; 2-18 h

kinase-Nluc reporter destabilization hit call, inactive:
O=C(N/N=C/c1coc2ccccc2c1=O)c1cccnc1 (10 µM) 0
O=C(Nc1ccc(CN2CCOCC2)cc1)c1ccc(-c2cccc(Cl)c2)o1 (10 µM) 0
NC(=O)c1nnc(N[C@@H]2CCCC[C@@H]2N)nc1Nc1cccc2cc[nH]c12 (10 µM) 0
COc1cc2ncc(-c3ccccc3)nc2cc1OC [Tyrphostin AG1296] (10 µM) 0
O=C(NOCC(O)CO)c1cc(Br)c(F)c(F)c1Nc1ccc(I)cc1F (stereo not given) (2.5 µM) 0
Cn1cnc(Cn2ccc3ccc(CNCc4[nH]c5ccccc5c4[C@H]4NC(=O)c5ccc(O)cc54)cc32)c1 (10 µM) 0
CC(=O)c1c(C)cc2cccc(O)c2c1O [Nepodin] (10 µM) 0
COc1cc(Nc2ncc(F)c(Nc3ccc4c(n3)N(COP(=O)(O)O)C(=O)C(C)(C)O4)n2)cc(OC)c1OC [Fostamatinib (disodium hexahydrate)] (10 µM) 0
Cc1ccccc1-c1c2nccc(-c3ccc(F)cc3F)c2cc[n+]1[O-] (10 µM) 0
Cn1nccc1Nc1nccc(-c2ccn([C@H](CO)c3ccc(Cl)c(F)c3)c(=O)c2)n1 [Ravoxertinib hydrochloride] (10 µM) 0
Nc1nc(F)nc2c1ncn2[C@@H]1O[C@H](CO)[C@@H](O)[C@@H]1O [Fludarabine] (10 µM) 0
O=C(CSC1=NCCN1)NC1CCCCCC1 [ICCB-19 (hydrochloride)] (2.5 µM) 0
CNC(=O)c1c(F)cccc1Nc1nc(Nc2cc3c(cc2OC)CCN3C(=O)CN(C)C)nc2[nH]ccc12 (10 µM) 0
COc1ccc(-c2ccc3c(N4CCOCC4)nc(N4C[C@@H](C)O[C@@H](C)C4)nc3n2)cc1CO (2.5 µM) 0
CC1=C(C(=O)O)N2C(=O)[C@@H](NC(=O)[C@H](N)C3=CCC=CC3)[C@H]2SC1 [Cephradine] (10 µM) 0
Cc1c(-c2c(F)cc(C(N)=O)c3[nH]c4c(c23)CC[C@H](C(C)(C)O)C4)cccc1-n1c(=O)c2cccc(F)c2n(C)c1=O (2.5 µM) 0
Cn1ncc(Cl)c1-c1cc(C(=O)N[C@H](CN)Cc2ccc(F)c(F)c2)oc1Cl [Uprosertib] (10 µM) 0
Cc1cccc(Oc2cnc(=O)[nH]c2)c1 [Tolimidone] (10 µM) 0
C[C@@H]1CCN(C(=O)CC#N)C[C@@H]1N(C)c1ncnc2[nH]ccc12 [Tofacitinib (citrate)] (10 µM) 0
COc1ccc(OC)c(C2C(C#N)=C(N)Oc3n[nH]c(-c4ccc5ccccc5c4)c32)c1 (stereo not given) (10 µM) 0
C=C1C(=O)O[C@H]2C[C@H](C)C(/C=C/C(C)=O)=CC[C@H]12 [Xanthatin] (2.5 µM) 0
C[C@]1(O)CCN(c2nc(N3C[C@H](O)[C@@H](O)C3)cc(C(F)(F)F)c2C#N)C1 (10 µM) 0
Cc1cc(Nc2ncnc3ccc(NC4=NC(C)(C)CO4)cc23)ccc1Oc1ccn2ncnc2c1 [Tucatinib (hemiethanolate)] (2.5 µM) 0
CCN1CCN(Cc2ccc(Nc3ncc(F)c(-c4cc(F)c5nc(C)n(C(C)C)c5c4)n3)nc2)CC1 [Abemaciclib (methanesulfonate)] (10 µM) 0
Cc1cc(=O)oc2c(C=O)c(O)ccc12 (10 µM) 0
CC1(C)C(O[C@@H]2OC[C@@H](O)[C@H](O)[C@H]2O)CC[C@]23CC24CC[C@]2(C)[C@@H]([C@@]5(C)CC[C@@H](C(C)(C)O)O5)[C@H](O)C[C@@]2(C)C4C[C@@H](O[C@@H]2O[C@H](CO)[C@@H](O)[C@H](O)[C@H]2O)C13 (stereo not given in full) [Astragaloside IV] (10 µM) 0
CC[C@@H](Oc1nc(Oc2cc(C)cc(-c3cccc(CN)c3)c2)c(F)cc1F)C(=O)O (10 µM) 0

target: FLT3 (UniProt P36888); assay: as above; details: K562; 2-18 h

kinase-Nluc reporter destabilization hit call, inactive:
Cc1[nH]c(/C=C2\C(=O)Nc3ccccc32)c(C)c1CCC(=O)O [(Z)-Orantinib] (10 µM) 0
NC(=O)c1ccc(-c2nc(-c3ccc4c(c3)OCCO4)c(-c3ccccn3)[nH]2)cc1 (10 µM) 0
CCNc1nc(Nc2cc(F)c(C(=O)N3CCOCC3)cc2OC)ncc1C(F)(F)F [GNE-7915 (tosylate)] (10 µM) 0
Cc1cc(O)c2c(c1)C(=O)c1cc(O)cc(O)c1C2=O [Emodin] (10 µM) 0
Cc1ccc(C(=O)Nc2ccc(Oc3cc4cnn(C)c4cc3-c3cn[nH]c3)c(F)c2)c(=O)n1-c1ccc(F)cc1 [Merestinib dihydrochloride] (2.5 µM) 0
C=CC(=O)Nc1cc(C)ccc1Nc1nc(Nc2cc(OC)ncc2C)ncc1C(F)(F)F (10 µM) 0
Oc1cc(O)c2cc(O)c(-c3cc(O)c(O)c(O)c3)[o+]c2c1 [Delphinidin (chloride)] (10 µM) 0
O=C1NC(=O)/C(=C\c2cccc(C(F)(F)F)c2)S1 (2.5 µM) 0
Cc1nc2sccn2c(=O)c1CCN1CCC(=C(c2ccccc2)c2ccc(F)cc2)CC1 (10 µM) 0
CCc1cc2c(cc1N1CCC(N3CCOCC3)CC1)C(C)(C)c1[nH]c3cc(C#N)ccc3c1C2=O [Alectinib (Hydrochloride)] (2 µM) 0
FC(F)(c1ccc2ncccc2c1)c1nnc2ccc(-c3ccncc3)nn12 (10 µM) 0
O=C(N/N=C/c1coc2ccccc2c1=O)c1cccnc1 (10 µM) 0
O=C(Nc1ccc(CN2CCOCC2)cc1)c1ccc(-c2cccc(Cl)c2)o1 (10 µM) 0
NC(=O)c1nnc(N[C@@H]2CCCC[C@@H]2N)nc1Nc1cccc2cc[nH]c12 (10 µM) 0
COc1cc2ncc(-c3ccccc3)nc2cc1OC [Tyrphostin AG1296] (10 µM) 0
O=C(NOCC(O)CO)c1cc(Br)c(F)c(F)c1Nc1ccc(I)cc1F (stereo not given) (2.5 µM) 0
Cn1cnc(Cn2ccc3ccc(CNCc4[nH]c5ccccc5c4[C@H]4NC(=O)c5ccc(O)cc54)cc32)c1 (10 µM) 0
CC(=O)c1c(C)cc2cccc(O)c2c1O [Nepodin] (10 µM) 0
COc1cc(Nc2ncc(F)c(Nc3ccc4c(n3)N(COP(=O)(O)O)C(=O)C(C)(C)O4)n2)cc(OC)c1OC [Fostamatinib (disodium hexahydrate)] (10 µM) 0
Cc1ccccc1-c1c2nccc(-c3ccc(F)cc3F)c2cc[n+]1[O-] (10 µM) 0
Cn1nccc1Nc1nccc(-c2ccn([C@H](CO)c3ccc(Cl)c(F)c3)c(=O)c2)n1 [Ravoxertinib hydrochloride] (10 µM) 0
Nc1nc(F)nc2c1ncn2[C@@H]1O[C@H](CO)[C@@H](O)[C@@H]1O [Fludarabine] (10 µM) 0
O=C(CSC1=NCCN1)NC1CCCCCC1 [ICCB-19 (hydrochloride)] (2.5 µM) 0
CNC(=O)c1c(F)cccc1Nc1nc(Nc2cc3c(cc2OC)CCN3C(=O)CN(C)C)nc2[nH]ccc12 (10 µM) 0
COc1ccc(-c2ccc3c(N4CCOCC4)nc(N4C[C@@H](C)O[C@@H](C)C4)nc3n2)cc1CO (2.5 µM) 0
CC1=C(C(=O)O)N2C(=O)[C@@H](NC(=O)[C@H](N)C3=CCC=CC3)[C@H]2SC1 [Cephradine] (10 µM) 0
Cc1c(-c2c(F)cc(C(N)=O)c3[nH]c4c(c23)CC[C@H](C(C)(C)O)C4)cccc1-n1c(=O)c2cccc(F)c2n(C)c1=O (2.5 µM) 0
Cn1ncc(Cl)c1-c1cc(C(=O)N[C@H](CN)Cc2ccc(F)c(F)c2)oc1Cl [Uprosertib] (10 µM) 0
Cc1cccc(Oc2cnc(=O)[nH]c2)c1 [Tolimidone] (10 µM) 0
C[C@@H]1CCN(C(=O)CC#N)C[C@@H]1N(C)c1ncnc2[nH]ccc12 [Tofacitinib (citrate)] (10 µM) 0
COc1ccc(OC)c(C2C(C#N)=C(N)Oc3n[nH]c(-c4ccc5ccccc5c4)c32)c1 (stereo not given) (10 µM) 0
C=C1C(=O)O[C@H]2C[C@H](C)C(/C=C/C(C)=O)=CC[C@H]12 [Xanthatin] (2.5 µM) 0
C[C@]1(O)CCN(c2nc(N3C[C@H](O)[C@@H](O)C3)cc(C(F)(F)F)c2C#N)C1 (10 µM) 0
Cc1cc(Nc2ncnc3ccc(NC4=NC(C)(C)CO4)cc23)ccc1Oc1ccn2ncnc2c1 [Tucatinib (hemiethanolate)] (2.5 µM) 0
CCN1CCN(Cc2ccc(Nc3ncc(F)c(-c4cc(F)c5nc(C)n(C(C)C)c5c4)n3)nc2)CC1 [Abemaciclib (methanesulfonate)] (10 µM) 0
Cc1cc(=O)oc2c(C=O)c(O)ccc12 (10 µM) 0
CC1(C)C(O[C@@H]2OC[C@@H](O)[C@H](O)[C@H]2O)CC[C@]23CC24CC[C@]2(C)[C@@H]([C@@]5(C)CC[C@@H](C(C)(C)O)O5)[C@H](O)C[C@@]2(C)C4C[C@@H](O[C@@H]2O[C@H](CO)[C@@H](O)[C@H](O)[C@H]2O)C13 (stereo not given in full) [Astragaloside IV] (10 µM) 0
CC[C@@H](Oc1nc(Oc2cc(C)cc(-c3cccc(CN)c3)c2)c(F)cc1F)C(=O)O (10 µM) 0
